The source of these data is PubChem BioAssay AID493014 (National Center for Advancing Translational Sciences (NCATS), 2011).

SMILES strings stand for the structures. The list shows a part of the results. Further columns of the screen follow, without active or inactive calls. Most of these compounds were active or inconclusive in the main read-out, so they are no random draw. The note in brackets gives the kind of curve behind each potency; many fits are weak.

A word on the AC50: it is the midpoint of the concentration-response curve, whichever way the signal moves.

This assay is described as follows: qHTS Assay to Find Inhibitors of Chronic Active B-Cell Receptor Signaling. The conditions noted are these: ABC-DLBCL IkBa-CBG/CBR reporter, luminescence ratio (green luciferase fused to IkBa over red control in TMD8 lymphoma cells), 4 h; measured here: CBR red luminescence, cell number. The essentials:
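TMD8 human ABC-DLBCL cells with doxycycline-inducible IκBα–green luciferase fusion and unfused red luciferase, in 0.5% FBS medium; compounds up to 46 uM, 4 h at 37C. Green/red luminescence ratio, filter-overlap corrected, fitted to concentration-response curves.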
In general terms: Quantitative high-throughput screening tests each substance at several concentrations.
For the compound `COc1cccc(C2C3=C(N=c4s/c(=C\c5ccc(OCC(=O)O)cc5)c(=O)n42)c2ccccc2CC3)c1` (stereo not drawn), the AC50 was 20 µM [falling, partial curve, poor fit]. With `CCOC(=O)c1sc(N2C(=O)C(O)=C(C(=O)c3ccc(C)o3)C2c2cccc([N+](=O)[O-])c2)nc1C` (stereo not drawn), the AC50 was 8.91 µM [falling, partial curve]. Turning to `COc1cc(NS(=O)(=O)c2ccc(NC(=S)NC(=O)c3sc4ccccc4c3Cl)cc2)nc(OC)n1`, the AC50 is 8.2 µM [falling, partial curve].
